Source: patent US20250357519A1, “APPLICATIONS OF O2-INSENSITIVE FORMATE DEHYDROGENASE” (UNIVERSITY OF MARYLAND, BALTIMORE, priority 2022, published 2025)

Columns and labels:
[1] = Benzyl viologen (BV) assay of formate oxidation by DvH-FDH2; format: biochemical, Desulfovibrio vulgaris Hildenborough; details: full progress curve, 2 mM BV (anaerobic)
[2] = Phenazine ethosulfate (PES)/dichlorophenolindophenol (DCPIP) assay of formate oxidation by DvH-FDH2; format: biochemical, Desulfovibrio vulgaris Hildenborough; details: full progress curve; for Product stoichiometry: F, formate
Text: FIG. 38. Experimental workflow for aerobic PES/DCPIP assay. Prepare cuvette (1), fill with reaction mix (2), add stirrer (3), initiate kinetics by the addition of DvH-FDH2 while the contents of the cuvette are being mixed (4), and continue data collection until completion (5). Blue arrows shown at the bottom in steps 4 and 5 denote stirring.
FIG. 39. Experimental workflow for anaerobic PES/DCPIP assay. Setup cuvette (1,2), add reaction mix (3), gas with argon (4), start the reaction by injecting DvH-FDH2 (5), and collect data until the reaction goes to completion (6). Blue arrows shown at the bottom in steps 4-6 represent stirring.
In this dye-linked assay, PES (Em,7=+65 mV) serves as the primary electron acceptor. Following its reduction by FDH2, PES nonenzymatically transfers electrons to a second dye, DCPIP, facilitating spectrophotometric detection.^91 Workflows are described in FIGS. 38 and 39. PES was chosen over PMS because of its long-term stability.^120 Furthermore, necessary precautions were taken in handling and preparing the reagents, including protecting the reagents from light.^187 DvH-FDH2 was assayed in 1 mM PES (Sigma-Aldrich P4544-1G)/93 μM DCPIP (98% pure; Acros 152870100) in 50 mM Tris pH 8.0. Reactions, 2.5 mL volume, were set up to the desired formate concentration and then started by addition of 10 μL of 400 nM FDH2 (1.6 nM final). Precipitation of reduced PES precluded used of higher concentrations of the electron acceptor. Therefore, 1 mM PES was used. Assays were performed using a UV-2600i spectrophotometer (Shimadzu Life Sciences) equipped with T2 Peltier/stirrer accessory (Quantum) and monitored at 600 nm. For aerobic measurements (FIG. 38), reactions were performed in open top styrene disposable cuvettes (Brand 75907D) with 6 mm×9 mm cuvette stirrer (Cowie 001.1609) spun at 400 rpm, and reactions started by addition of 10 μL of 400 nM FDH2 via micropipette. Some aerobic experiments were conducted using a Cary 300 UV-Vis spectrophotometer (Agilent) at a volume of 3.0 mL with api 9 mm×8 mm spin bar (Sigma Z363545) cuvette stirrer. For the anaerobic conditions (FIG. 39), reactions were set up under argon in screw cap quartz cuvettes (Starna 1-SOG-10_GL14-S) sealed with Suba-Seal 13 white rubber septa (Sigma Z167258). The stirrer was an 8 mm×3 mm pivot bar (VWR 37119-6183), stirring at 650 rpm. Reactions were started by addition of FDH2 via 10 μL Hamilton syringe (701N 80300) under an argon atmosphere.
For classical steady-state kinetics, initial velocities (guided by residual plots) were obtained using ICEKAT.^188 KinTek Explorer^84,89 (version 10.1.6, KinTek Corporation) was used to perform global fitting of enzyme kinetics data to Schemes 1 and S1. This is based on numerical integration of rate equations. Confidence contour analysis was carried out to assess whether the parameters were properly constrained by the data.

B1: DvH-FDH2 (protein)
chain 1: MRMPRRTFIKLASASAGALAFAGLGQSLAPTVARAAELKIAKAKVTPSVCCFCAVGCGLLVYTDTQTGRSINIEGDPDHPTNEGTLCPKGASIWQTTERSKRVTKVLYRAPGAAAWEEKSWDWALPRIARKIKETRDATFELTNDKGQTVNRTRGIASVGSAAVDNEEGWLMQAMMRALGLVYIESHARIUHSSTVGALAESYGRGAMTNHWIDLKNSDVILIMGSNAAENHPISFKWVTRAQERGATLIHVDPRFTRTSAKADIHAHIRSGTDIAFFGGLIRYIMENDLFFRQYVVDYTNASYIVGADYGFADGLFTGFDAEKGTYNTKKWAFAADENGMTLKDPTLNDPRCVFQLMKAHYARYDRKTVSDVTGISEEQLATLWSTFASTGKPDRAGTILYAMGQCQHTVGVQNIRALSMIQLLLGNIGIAGGGVNALRGESNVQGTTDISLLCDNLSGYLPTPKASWATFDDYVKGTTPVDKDPKSANWWSNRGKYLASYMKSVYPTASHQDGYLWHPKVDDGKITDYSWLQIFERMSKGGFKGAFVWGQNPCAGGANAGKNRKAMETLDWMVVVNLFENESSLFWKGPGVDPAKVKTEVFFLPACMSVEKGGSIANSGRWLQWREPGPKPMGDSRSDGDIVLDLYDEIRKLYREEKGAFPEPVLALDTDYRTDGKYDHHKVAKTLNGKFLTDVTIGDKTYKAGQQVPGFAMLQADGSTTSGCWIFTGCYTDAGNMMARRDRTQTPEQAAIGLFPNWSYAWPANRRILYNRAAVDMTGKPFDPKRAVIAWNGEKWVGDVPDGGWKPGEKLPFIMIREGRGQLFGPGRVDGPFPEHYEPFESPLESHPFSKQRVNPTALAFSHEPKAVRDKRYPFICTTYRVTEQWQSGTMTRNTGWLKEMQPEGFCEISRELAKELGIANGDAVVLESLRGKVQVVAIVTPRLKPFKVMGEVMHEVGIPWQFGWGQHVGKGDSANLLSPSVGDPNTGIPETKVFMVNLRKA
chain 2: MRPLGSLPQGMRRVSRRHIREAYMNGKTFFIDQTRCTACRGCQAACKQWKKFGSIETRNTGSYQNPPDLGPSTFKLVRFNEVEVDGKLKWLFFPEQCRHCLEPPCKMVADALIPGAIVQDAETGAVLYTEKTKGLDYMEVRSACPYDIPRQDPATGLLTKCNMCIDRVQNGMLPACVKTCPTGTMHFGDRADMLELAQKRLGEVKKRSPAALLADSDLVRVLYLCELAPANYHSHMVAEADTSRIGPFSRRALLRLRPFA
modifications: non-natural residues; left off: small tags and cut ends
- Enzyme inactivation [1]: No
- Product inhibition [1]: No
- Product stoichiometry ([1]; F, formate): 2BV^+: 1F
- Enzyme inactivation ([2]; DCPIP (air)): No
- Product inhibition ([2]; DCPIP (air)): No
- Product stoichiometry ([2]; DCPIP (air)): 1DCPIP:1F
- Enzyme inactivation ([2]; DCPIP (anaerobic)): No
- Product inhibition ([2]; DCPIP (anaerobic)): No
- Product stoichiometry ([2]; DCPIP (anaerobic)): 1DCPIP:1F
